Results taken from publication PMC4470020.
No constants are given. Whether binding was seen depends on the method and setting. In cells and extracts the contact can be indirect. Some binding calls cover weakened binding; strength is not graded here.

The chains behind the UniProt entries cited, without tags or fusion partners.
UniProt P05556: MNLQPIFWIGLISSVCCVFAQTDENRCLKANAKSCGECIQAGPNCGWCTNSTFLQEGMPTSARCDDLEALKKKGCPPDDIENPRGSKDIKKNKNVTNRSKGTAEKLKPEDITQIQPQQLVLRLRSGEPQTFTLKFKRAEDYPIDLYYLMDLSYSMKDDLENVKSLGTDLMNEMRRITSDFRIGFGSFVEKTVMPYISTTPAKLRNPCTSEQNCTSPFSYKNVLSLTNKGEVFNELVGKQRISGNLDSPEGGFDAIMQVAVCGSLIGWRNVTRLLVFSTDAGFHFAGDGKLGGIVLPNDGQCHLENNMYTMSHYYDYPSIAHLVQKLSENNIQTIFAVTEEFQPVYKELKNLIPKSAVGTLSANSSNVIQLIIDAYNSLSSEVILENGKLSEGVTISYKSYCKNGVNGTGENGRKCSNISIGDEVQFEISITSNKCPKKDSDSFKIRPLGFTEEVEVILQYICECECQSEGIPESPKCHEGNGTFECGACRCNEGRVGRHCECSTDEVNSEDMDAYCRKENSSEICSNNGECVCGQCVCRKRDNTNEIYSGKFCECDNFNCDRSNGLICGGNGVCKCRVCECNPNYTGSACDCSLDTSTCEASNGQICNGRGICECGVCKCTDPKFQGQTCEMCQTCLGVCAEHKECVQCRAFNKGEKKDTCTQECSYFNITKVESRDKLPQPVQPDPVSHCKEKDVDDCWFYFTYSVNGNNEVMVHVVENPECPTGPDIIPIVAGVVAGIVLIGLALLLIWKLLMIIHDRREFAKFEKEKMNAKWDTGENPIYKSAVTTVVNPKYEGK

Tests used:
[1] = target: integrin β1 (human (endogenous in HCC827 and NCI-H358)) (UniProt P05556); experiment: co-IP; H358 control cells lysed in RIPA buffer without SDS; anti-integrin β1 or anti-claudin-7 antibody at 4 °C overnight, protein A or G beads; washes with RIPA, 0.5 M NaCl and 10 mM Tris pH 7.4; western blot for the other protein
[2] = target: integrin β1 (human (endogenous in HCC827 and NCI-H358)) (UniProt P05556); experiment: co-IP; HCC827 control cells lysed in RIPA buffer without SDS; anti-integrin β1 or anti-claudin-7 antibody at 4 °C overnight, protein A or G beads; washes with RIPA, 0.5 M NaCl and 10 mM Tris pH 7.4; western blot for the other protein

binding [1]: binds
binding [2]: binds
B1: claudin-7 (protein, UniProt O95471 1-211)
chain: MANSGLQLLGFSMALLGWVGLVACTAIPQWQMSSYAGDNIITAQAMYKGLWMDCVTQSTGMMSCKMYDSVLALSAALQATRALMVVSLVLGFLAMFVATMGMKCTRCGGDDKVKKARIAMGGGIIFIVAGLAALVACSWYGHQIVTDFYNPLIPTNIKYEFGPAIFIGWAGSALVILGGALLSCSCPGNESKAGYRVPRSYPKSNSSKEYV
